{"sequences": {"note": "Amino acid sequences for entries named in this document (tags omitted).", "UniProt P09471, whole entry, looked up": "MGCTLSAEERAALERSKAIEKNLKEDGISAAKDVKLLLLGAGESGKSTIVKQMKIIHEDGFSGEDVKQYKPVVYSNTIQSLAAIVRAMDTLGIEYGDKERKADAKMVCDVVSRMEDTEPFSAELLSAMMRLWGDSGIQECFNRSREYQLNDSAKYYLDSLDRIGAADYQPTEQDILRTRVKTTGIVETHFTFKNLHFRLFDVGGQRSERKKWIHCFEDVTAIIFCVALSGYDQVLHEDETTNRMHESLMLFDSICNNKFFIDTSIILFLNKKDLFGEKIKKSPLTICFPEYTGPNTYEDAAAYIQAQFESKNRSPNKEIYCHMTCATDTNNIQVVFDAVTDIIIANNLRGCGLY"}, "source": "PubChem BioAssay AID1439", "about": "(NMMLSC, 2008)", "note": "Hit rate of the full screen: of about 220,000 compounds, about 770 (0.35%) were called active. The shares of active, inactive and inconclusive entries below differ from those in the screen. No stated cut-off is given here; in the data, active means binding response below about 49% or above about 150%; inconclusive means no clear call, values can overlap the other calls; inactive means in between."}
{"target": "Guanine nucleotide-binding protein G(o) subunit alpha (Homo sapiens) (UniProt P09471)", "assay": "RGS7-Galphao binding modulators, primary screen, biochemical, multiplexed bead flow cytometry (AID 1439);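 further: fluorescent Galphao held in activated GDP-AlF4 state binding bead-coupled RGS7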", "conditions": "at 10 µM, actives lie on both sides"}
{"smiles": "Cn1c(=O)c(=O)n(C)c2cc(S(=O)(=O)N3CCCC3C(=O)NCc3cccnc3)ccc21", "note": "(stereo unspecified)", "binding response (% of control)": "inconclusive: 151%"}
{"smiles": "O=C(COc1ccc(Cl)cc1)NNC(=O)c1cccnc1", "binding response (% of control)": "inactive: 105%"}
{"smiles": "COc1cc(OC)cc(C(=O)N[C@H](C(=O)OCC(=O)Nc2ccc(F)c(F)c2F)C(C)C)c1", "binding response (% of control)": "inconclusive: 105%"}
{"smiles": "N#Cc1cc2c(nc1SCc1ccc(Cl)nc1)CCCCC2", "binding response (% of control)": "inconclusive: 91.6%"}
{"smiles": "C[C@@]12CCC=C[C@H]1[C@H](c1ccc(F)c(/C=C/c3ccccc3)c1)N(Cc1ccccc1)C2=O", "binding response (% of control)": "inconclusive: 112%"}
{"smiles": "Cc1cc(NC(=O)NN2CCOCC2)nn1-c1c(Cl)cccc1Cl", "binding response (% of control)": "inconclusive: 130%"}
{"smiles": "COCCNC(=O)C1c2ccccc2C(=O)N(CCOC)C1c1ccc(F)cc1", "note": "(stereo unspecified)", "binding response (% of control)": "inactive: 104%"}
{"smiles": "Cc1ccc(-c2nnn(C/C(N)=N/O)n2)cc1", "binding response (% of control)": "inactive: 100%"}
{"smiles": "Cc1ccccc1NC(=O)c1c2c(nc3ccccc13)CCC2", "binding response (% of control)": "inconclusive: 89.8%"}
{"smiles": "CCOC(=O)c1c(NC(=O)CN2C(=O)NC(C)(c3ccc(Cl)cc3)C2=O)sc(C(=O)NC)c1C", "note": "(stereo unspecified)", "binding response (% of control)": "inactive: 106%"}
{"smiles": "Cc1ccc(C(=O)NCc2ccccn2)cc1Cl", "binding response (% of control)": "inactive: 99.7%"}
{"smiles": "CC(O)[C@H]1CNC(=O)C(=O)N1CCc1cccc2ccccc12", "note": "(stereo partly specified)", "binding response (% of control)": "inconclusive: 85.5%"}
{"smiles": "COc1cccc(C(=O)C2CN(c3ccccc3)CC2c2ccc(Cl)cc2)c1", "note": "(stereo unspecified)", "binding response (% of control)": "inactive: 103%"}
{"smiles": "O=C(CSc1ncnc2sc3c(c12)CCC3)Nc1ccccc1C(=O)O", "binding response (% of control)": "inconclusive: 93.9%"}
{"smiles": "Cn1ccnc1SCC(=O)Nc1ccc2c(c1)OC(F)(F)O2", "binding response (% of control)": "inactive: 99%"}
{"smiles": "Cc1nn(C)c(Sc2ccccn2)c1[N+](=O)[O-]", "binding response (% of control)": "inconclusive: 93%"}
{"smiles": "CCOC(=O)/C(C#N)=C1/C=C(C)c2ccccc2N1", "binding response (% of control)": "inconclusive: 115%"}
{"smiles": "c1ccc(-c2nnc(SCC3CCCO3)nc2-c2ccccc2)cc1", "note": "(stereo unspecified)", "binding response (% of control)": "inconclusive: 131%"}
{"smiles": "O=C1Nc2ccccc2C1(O)c1ccccc1", "note": "(stereo unspecified)", "binding response (% of control)": "inconclusive: 116%"}
{"smiles": "Cn1c(=O)[nH]c2nnc(-c3ccc(Cl)c(Cl)c3)nc2c1=O", "binding response (% of control)": "inconclusive: 62%"}
{"smiles": "O=c1[nH][nH]cc1C=Nc1ccccc1Cl", "binding response (% of control)": "inconclusive: 93.6%"}
{"smiles": "O=S(=O)(c1ccc(-c2ccon2)s1)N1CCN(CCN2CCOCC2)CC1", "binding response (% of control)": "inconclusive: 118%"}
{"smiles": "CCOC(=O)C1=NNC(C(=O)c2ccccc2)C1c1ccc(Cl)cc1", "note": "(stereo unspecified)", "binding response (% of control)": "inconclusive: 109%"}
{"smiles": "CCOCC(=O)Nc1cc(C(=O)OC)cc(C(=O)OC)c1", "binding response (% of control)": "inactive: 104%"}
{"smiles": "OCCN1CCN(CC#CCC(c2ccccc2)c2ccccc2)CC1", "binding response (% of control)": "inconclusive: 24.6%"}
{"smiles": "O=C(O)c1cc(-c2cccnc2)nc2ccccc12", "binding response (% of control)": "inconclusive: 93.8%"}
